These are yes or no findings as the source states them, for the method shown. Binding seen in cells or lysates may run through a third protein. Binding calls can cover weak binding; strength is not graded here.
Target: mCherry-RAD54L2^ΔSIM mutant (UniProt Q9Y4B4)
Test: co-IP; mCherry IP on RFP-Trap magnetic beads, 2 hours at 4°C, from benzonase-treated extracts of RPE-1 cells, untreated or treated with 100 μM etoposide for 1 hour (also G1- or S-phase synchronized cells); IP buffer 20 mM tris-HCl pH 7.5, 150 mM NaCl, 2 mM MgCl2, 10% glycerol, 0.5% NP-40, 20 mM NEM; Western blot

Sequences of proteins named here, by UniProt entry; tags and fusion partners are left off. A change or cut given only in a name is not applied to a line headed by its entry.
UniProt Q9Y4B4: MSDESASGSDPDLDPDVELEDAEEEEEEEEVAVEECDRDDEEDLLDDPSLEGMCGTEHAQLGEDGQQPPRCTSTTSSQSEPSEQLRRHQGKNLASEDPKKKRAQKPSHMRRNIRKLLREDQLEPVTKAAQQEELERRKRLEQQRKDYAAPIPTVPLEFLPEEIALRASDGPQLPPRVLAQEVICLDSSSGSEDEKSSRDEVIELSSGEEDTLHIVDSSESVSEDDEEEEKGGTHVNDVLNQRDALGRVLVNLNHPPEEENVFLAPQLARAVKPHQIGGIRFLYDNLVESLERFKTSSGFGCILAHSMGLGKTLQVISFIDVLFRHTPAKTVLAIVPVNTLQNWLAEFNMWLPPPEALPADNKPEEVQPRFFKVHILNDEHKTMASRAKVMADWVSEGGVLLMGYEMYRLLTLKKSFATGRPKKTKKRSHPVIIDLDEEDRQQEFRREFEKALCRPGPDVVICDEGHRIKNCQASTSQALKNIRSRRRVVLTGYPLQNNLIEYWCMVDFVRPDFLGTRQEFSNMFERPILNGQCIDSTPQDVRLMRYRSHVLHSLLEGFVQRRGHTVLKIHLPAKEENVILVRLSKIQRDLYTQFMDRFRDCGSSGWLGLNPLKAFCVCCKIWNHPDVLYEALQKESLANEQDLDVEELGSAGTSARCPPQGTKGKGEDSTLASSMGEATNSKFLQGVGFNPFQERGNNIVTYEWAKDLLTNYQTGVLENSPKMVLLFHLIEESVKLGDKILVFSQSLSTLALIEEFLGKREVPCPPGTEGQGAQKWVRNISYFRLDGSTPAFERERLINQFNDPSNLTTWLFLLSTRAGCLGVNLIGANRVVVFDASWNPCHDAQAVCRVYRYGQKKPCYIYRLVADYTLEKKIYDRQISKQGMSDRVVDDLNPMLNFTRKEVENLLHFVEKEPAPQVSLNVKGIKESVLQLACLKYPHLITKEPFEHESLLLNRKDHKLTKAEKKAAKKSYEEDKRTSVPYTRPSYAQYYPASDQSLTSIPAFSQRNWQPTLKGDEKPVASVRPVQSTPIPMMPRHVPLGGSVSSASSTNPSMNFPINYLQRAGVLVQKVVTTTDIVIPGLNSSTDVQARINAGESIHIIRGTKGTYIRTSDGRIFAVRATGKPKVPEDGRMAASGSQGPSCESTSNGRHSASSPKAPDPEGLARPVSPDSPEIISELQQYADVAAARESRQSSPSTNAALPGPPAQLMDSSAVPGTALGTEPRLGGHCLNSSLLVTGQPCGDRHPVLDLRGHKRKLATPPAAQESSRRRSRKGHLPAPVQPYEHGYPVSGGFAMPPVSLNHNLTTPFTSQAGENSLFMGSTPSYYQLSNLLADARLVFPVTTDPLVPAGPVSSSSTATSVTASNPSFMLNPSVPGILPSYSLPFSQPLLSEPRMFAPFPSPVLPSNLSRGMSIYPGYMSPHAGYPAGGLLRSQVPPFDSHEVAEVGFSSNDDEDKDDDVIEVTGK
UniProt Q02880: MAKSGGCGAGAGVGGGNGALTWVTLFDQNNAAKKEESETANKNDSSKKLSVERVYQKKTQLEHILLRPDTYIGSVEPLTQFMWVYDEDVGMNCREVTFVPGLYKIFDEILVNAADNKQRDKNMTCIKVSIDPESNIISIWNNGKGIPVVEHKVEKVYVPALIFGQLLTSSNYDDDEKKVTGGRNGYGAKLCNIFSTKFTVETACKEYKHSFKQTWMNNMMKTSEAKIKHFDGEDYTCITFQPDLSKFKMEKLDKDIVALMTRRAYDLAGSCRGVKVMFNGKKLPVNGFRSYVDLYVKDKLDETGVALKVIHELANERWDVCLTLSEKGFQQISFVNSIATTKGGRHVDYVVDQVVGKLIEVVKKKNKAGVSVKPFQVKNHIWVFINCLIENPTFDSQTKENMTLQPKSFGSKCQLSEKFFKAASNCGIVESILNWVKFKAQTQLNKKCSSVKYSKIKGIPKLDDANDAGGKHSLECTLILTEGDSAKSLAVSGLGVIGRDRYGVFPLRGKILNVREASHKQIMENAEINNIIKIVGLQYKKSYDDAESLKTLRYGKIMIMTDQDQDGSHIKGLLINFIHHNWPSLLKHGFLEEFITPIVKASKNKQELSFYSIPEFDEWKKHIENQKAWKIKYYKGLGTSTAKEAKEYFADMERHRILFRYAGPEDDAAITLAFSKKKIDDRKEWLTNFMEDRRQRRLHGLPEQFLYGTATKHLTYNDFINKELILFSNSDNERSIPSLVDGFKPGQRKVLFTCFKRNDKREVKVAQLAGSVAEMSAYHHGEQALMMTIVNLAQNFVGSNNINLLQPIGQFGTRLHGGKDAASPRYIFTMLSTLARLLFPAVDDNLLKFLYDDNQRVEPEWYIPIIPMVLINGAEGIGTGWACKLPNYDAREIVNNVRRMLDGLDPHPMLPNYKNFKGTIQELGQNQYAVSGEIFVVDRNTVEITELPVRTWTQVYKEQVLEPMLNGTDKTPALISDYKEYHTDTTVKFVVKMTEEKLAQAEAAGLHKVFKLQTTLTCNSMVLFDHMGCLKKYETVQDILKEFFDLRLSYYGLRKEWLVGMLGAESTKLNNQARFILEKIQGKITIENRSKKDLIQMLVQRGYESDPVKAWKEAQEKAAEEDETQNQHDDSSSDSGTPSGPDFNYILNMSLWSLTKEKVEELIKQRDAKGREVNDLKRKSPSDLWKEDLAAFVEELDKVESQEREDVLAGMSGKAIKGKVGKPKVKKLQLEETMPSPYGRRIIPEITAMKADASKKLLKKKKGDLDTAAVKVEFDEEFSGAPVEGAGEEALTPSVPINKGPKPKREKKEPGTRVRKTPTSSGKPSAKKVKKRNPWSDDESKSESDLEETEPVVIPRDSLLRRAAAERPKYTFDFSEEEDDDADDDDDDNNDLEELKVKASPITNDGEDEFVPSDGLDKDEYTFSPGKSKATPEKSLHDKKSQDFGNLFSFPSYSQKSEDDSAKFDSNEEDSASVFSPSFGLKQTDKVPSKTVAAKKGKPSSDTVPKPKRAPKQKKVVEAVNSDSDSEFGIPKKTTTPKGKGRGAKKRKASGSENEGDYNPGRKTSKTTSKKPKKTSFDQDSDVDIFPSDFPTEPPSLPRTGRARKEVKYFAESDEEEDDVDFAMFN

- binding: binds
Substance: Topoisomerase 2β (TOP2β) (from UniProt Q02880 1-1626) (enzyme)

Reference: article PMC10699776
